Assay [1] concerns the target NRL, endogenous in bovine retina (bovine (endogenous in bovine retina)) (UniProt F1N4J1). As to the kind of experiment: affinity purification with mass spectrometry; Sephacryl S-300 peaks of 650 and 450 kDa from bovine retinal nuclear extract immunoprecipitated with NRL antibody/protein A beads overnight at 4°C; LC-MS-MS; IgG control.
The target of assay [2] is human NRL fused to GST (human) (UniProt P54845). The assay can be described thus: affinity purification with mass spectrometry; GST-NRL on Glutathione Sepharose beads incubated 2 hr at 4°C with nuclear fraction from bovine retina; LC-MS-MS; GST only as control; n = 3; only the target purified.
For assay [3], the target named is NRL, endogenous in mouse retina (mouse (endogenous in mouse retina)) (UniProt P54846). The assay can be described thus: affinity purification with mass spectrometry; NRL co-IP from mouse retina nuclear extracts; LC-MS-MS; IgG control.

Sequences of proteins named here, by UniProt entry; tags and fusion partners are left off.
UniProt F1N4J1: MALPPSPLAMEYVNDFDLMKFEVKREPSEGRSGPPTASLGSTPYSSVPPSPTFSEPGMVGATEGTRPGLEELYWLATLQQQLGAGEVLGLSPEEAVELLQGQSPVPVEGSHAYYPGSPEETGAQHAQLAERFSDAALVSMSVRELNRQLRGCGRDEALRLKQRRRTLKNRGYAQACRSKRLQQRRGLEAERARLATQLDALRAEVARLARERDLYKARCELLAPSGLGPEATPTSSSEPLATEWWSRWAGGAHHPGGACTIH
UniProt P54845: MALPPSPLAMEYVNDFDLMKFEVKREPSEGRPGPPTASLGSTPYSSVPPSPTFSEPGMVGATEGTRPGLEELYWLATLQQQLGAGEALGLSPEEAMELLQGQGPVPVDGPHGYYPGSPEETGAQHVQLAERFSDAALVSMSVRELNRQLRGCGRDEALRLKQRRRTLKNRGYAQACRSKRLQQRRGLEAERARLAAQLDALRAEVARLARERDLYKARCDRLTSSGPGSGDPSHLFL
UniProt P54846: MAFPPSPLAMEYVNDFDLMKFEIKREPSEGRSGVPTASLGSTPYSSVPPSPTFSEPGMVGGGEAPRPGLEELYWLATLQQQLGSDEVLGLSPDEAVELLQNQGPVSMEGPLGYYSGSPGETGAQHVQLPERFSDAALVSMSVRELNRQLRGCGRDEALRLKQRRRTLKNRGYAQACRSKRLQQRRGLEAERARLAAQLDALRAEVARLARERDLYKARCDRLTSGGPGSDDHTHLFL
UniProt Q9XSK0: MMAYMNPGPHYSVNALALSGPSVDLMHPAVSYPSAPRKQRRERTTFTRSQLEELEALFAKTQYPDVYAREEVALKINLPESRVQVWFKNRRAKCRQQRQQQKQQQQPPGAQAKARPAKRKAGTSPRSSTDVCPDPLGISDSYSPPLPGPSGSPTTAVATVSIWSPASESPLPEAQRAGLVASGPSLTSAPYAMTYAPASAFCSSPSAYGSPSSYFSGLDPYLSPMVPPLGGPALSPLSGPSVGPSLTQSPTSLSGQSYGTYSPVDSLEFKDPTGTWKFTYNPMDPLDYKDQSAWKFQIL
UniProt A0A3Q1M155: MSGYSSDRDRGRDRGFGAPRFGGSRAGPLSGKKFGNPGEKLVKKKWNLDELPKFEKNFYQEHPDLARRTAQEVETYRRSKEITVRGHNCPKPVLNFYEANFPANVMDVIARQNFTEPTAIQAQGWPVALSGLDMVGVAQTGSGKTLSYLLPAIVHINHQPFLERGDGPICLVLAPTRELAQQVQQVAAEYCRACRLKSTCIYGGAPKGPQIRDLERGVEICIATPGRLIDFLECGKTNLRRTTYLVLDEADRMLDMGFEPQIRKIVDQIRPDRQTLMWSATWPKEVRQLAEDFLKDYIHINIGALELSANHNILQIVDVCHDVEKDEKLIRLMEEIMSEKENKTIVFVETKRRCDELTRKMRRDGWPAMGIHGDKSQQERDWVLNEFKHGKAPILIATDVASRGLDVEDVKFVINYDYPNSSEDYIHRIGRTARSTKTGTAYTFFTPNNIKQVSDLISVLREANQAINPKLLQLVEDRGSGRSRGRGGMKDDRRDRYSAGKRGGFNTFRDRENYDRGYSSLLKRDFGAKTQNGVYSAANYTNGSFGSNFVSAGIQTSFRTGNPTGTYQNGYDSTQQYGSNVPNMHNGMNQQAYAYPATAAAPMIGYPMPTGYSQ
UniProt Q28141: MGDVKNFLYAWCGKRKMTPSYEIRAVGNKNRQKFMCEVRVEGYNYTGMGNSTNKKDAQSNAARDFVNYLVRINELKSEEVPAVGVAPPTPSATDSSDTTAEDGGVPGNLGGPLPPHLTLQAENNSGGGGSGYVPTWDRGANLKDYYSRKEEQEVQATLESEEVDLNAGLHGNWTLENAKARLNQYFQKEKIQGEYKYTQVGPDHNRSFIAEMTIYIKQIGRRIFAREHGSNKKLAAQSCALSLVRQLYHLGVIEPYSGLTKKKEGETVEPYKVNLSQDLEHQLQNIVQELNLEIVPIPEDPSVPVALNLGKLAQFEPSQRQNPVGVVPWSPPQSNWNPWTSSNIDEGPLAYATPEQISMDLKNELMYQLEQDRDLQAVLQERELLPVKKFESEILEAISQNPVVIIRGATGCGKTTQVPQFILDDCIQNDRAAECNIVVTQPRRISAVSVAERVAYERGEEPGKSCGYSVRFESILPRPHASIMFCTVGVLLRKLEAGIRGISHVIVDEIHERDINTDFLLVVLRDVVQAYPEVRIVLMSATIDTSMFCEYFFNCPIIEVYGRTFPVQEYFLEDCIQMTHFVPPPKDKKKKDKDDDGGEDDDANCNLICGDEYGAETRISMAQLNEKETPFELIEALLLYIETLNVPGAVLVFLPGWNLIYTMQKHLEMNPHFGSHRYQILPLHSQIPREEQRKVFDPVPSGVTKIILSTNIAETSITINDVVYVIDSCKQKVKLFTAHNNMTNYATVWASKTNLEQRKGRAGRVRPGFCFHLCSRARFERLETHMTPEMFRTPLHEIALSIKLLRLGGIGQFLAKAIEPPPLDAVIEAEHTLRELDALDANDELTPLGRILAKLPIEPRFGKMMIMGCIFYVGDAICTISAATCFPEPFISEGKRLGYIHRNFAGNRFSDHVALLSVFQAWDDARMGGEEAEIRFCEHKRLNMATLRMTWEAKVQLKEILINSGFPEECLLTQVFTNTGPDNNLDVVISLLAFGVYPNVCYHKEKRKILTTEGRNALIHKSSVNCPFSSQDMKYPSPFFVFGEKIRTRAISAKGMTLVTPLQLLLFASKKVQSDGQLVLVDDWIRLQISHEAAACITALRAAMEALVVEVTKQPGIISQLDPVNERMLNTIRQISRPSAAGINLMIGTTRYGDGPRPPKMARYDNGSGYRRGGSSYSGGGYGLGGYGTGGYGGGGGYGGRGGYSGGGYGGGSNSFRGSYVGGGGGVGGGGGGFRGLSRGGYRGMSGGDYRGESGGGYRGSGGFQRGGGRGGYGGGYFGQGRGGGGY
UniProt O70133: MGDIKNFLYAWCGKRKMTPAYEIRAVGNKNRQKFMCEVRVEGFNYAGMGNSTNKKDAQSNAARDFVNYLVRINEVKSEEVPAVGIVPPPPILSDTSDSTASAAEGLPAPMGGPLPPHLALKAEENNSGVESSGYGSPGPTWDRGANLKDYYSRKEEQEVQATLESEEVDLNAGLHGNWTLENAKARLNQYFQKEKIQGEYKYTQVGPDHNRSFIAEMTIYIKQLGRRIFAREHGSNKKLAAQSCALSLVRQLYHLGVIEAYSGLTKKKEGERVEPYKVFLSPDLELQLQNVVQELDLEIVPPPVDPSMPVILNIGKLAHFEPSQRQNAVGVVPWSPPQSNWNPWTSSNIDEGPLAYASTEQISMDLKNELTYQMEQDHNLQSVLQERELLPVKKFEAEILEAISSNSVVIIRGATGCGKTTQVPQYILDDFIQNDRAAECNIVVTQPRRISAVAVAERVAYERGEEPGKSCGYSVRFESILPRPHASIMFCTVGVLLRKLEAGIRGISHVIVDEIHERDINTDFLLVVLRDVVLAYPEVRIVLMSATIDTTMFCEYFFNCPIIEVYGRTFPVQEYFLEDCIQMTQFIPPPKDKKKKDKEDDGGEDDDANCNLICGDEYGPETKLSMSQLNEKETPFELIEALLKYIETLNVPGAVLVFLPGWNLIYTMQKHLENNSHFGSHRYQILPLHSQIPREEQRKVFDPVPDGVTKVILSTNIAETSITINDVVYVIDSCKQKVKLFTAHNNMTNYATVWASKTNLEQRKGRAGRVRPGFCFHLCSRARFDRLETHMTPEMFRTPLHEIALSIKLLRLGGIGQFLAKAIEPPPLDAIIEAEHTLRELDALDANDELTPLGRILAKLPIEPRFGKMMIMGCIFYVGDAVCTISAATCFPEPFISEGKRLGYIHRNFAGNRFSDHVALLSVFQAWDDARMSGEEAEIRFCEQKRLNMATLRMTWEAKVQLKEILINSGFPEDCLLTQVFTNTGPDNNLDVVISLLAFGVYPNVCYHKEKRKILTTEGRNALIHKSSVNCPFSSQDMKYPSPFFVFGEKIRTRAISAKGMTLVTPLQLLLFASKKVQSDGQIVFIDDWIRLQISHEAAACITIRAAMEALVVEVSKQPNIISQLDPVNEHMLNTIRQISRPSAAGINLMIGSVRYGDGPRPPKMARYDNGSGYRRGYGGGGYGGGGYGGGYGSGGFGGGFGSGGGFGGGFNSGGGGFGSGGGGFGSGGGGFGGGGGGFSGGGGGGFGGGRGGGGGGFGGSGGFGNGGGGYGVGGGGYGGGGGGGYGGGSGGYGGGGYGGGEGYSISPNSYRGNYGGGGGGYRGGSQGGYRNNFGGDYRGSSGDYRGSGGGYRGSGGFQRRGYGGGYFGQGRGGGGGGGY
UniProt Q9TTF0: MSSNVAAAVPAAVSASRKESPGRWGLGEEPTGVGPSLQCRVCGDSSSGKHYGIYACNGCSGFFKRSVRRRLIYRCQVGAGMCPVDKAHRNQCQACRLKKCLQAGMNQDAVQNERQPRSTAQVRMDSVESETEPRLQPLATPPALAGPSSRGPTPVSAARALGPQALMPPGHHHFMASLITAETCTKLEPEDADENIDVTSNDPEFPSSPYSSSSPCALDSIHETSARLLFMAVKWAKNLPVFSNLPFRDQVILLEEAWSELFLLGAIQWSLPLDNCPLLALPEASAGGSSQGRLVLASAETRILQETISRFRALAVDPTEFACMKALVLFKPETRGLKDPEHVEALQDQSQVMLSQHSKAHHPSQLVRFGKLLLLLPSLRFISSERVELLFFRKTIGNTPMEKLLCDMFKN

These are yes or no findings as the source states them, for the method shown. Binding seen in cells or lysates may run through a third protein. These calls come from enrichment with a bait or labelling near it, and not all partners need be listed.

Consider “CRX, bovine retina (from UniProt Q9XSK0 1-299)”, for which the binding result in assay [1] was “binds”.
Same read-out and setting: as for “DDX5, bovine retina (from UniProt A0A3Q1M155 1-614)”, the entry is “binds”.
As for “DHX9, bovine retina (from UniProt Q28141 1-1287)”, the binding result in assay [1] and in assay [2] was “binds” throughout.
As for “DHX9, mouse retina (from UniProt O70133 1-1380)”, the binding result in assay [3] was “binds”.
“NR2E3, bovine retina (from UniProt Q9TTF0 1-411)”: the binding entry in assay [1] is reported as “binds”.

B1: NonO/p54^nrb, bovine retina (protein, UniProt Q2KJ42 1-470)
chain: MQSNKTFNLEKQNHTPRKHHQHHHQQHHQQQQQQPPPPPMPANGQQASSQNEGLTIDLKNFRKPGEKTFTQRSRLFVGNLPPDITEEEMRKLFEKYGKAGEVFIHKDKGFGFIRLETRTLAEIAKVELDNMPLRGKQLRVRFACHSASLTVRNLPQYVSNELLEEAFSVFGQVERAVVIVDDRGRPSGKGIVEFSGKPAARKALDRCSEGSFLLTTFPRPVTVEPMDQLDDEEGLPEKLVIKNQQFHKEREQPPRFAQPGSFEYEYAMRWKALIEMEKQQQDQVDRNIKEAREKLEMEMEAARHEHQVMLMRQDLMRRQEELRRMEELHNQEVQKRKQLELRQEEERRRREEEMRRQQEEMMRRQQEGFKGTFPDAREQEIRMGQMAMGGAMGINNRGAMPPAPVPAGTPAPPGPATMMPDGTLGLTPPTTERFGQAATMEGIGAIGGTPPAFNRAAPGAEFAPNKRRRY
As to B1, in assay [1], the binding entry was “binds”.

The values are drawn from paper PMC11884789.
